Assay results from patent US20090143434A1 (priority 2007, published 2009).
Like-named read-outs stand apart in the source and are kept apart here.

Sequences of proteins named here, by UniProt entry; tags and fusion partners are left off.
UniProt Q14524, whole entry: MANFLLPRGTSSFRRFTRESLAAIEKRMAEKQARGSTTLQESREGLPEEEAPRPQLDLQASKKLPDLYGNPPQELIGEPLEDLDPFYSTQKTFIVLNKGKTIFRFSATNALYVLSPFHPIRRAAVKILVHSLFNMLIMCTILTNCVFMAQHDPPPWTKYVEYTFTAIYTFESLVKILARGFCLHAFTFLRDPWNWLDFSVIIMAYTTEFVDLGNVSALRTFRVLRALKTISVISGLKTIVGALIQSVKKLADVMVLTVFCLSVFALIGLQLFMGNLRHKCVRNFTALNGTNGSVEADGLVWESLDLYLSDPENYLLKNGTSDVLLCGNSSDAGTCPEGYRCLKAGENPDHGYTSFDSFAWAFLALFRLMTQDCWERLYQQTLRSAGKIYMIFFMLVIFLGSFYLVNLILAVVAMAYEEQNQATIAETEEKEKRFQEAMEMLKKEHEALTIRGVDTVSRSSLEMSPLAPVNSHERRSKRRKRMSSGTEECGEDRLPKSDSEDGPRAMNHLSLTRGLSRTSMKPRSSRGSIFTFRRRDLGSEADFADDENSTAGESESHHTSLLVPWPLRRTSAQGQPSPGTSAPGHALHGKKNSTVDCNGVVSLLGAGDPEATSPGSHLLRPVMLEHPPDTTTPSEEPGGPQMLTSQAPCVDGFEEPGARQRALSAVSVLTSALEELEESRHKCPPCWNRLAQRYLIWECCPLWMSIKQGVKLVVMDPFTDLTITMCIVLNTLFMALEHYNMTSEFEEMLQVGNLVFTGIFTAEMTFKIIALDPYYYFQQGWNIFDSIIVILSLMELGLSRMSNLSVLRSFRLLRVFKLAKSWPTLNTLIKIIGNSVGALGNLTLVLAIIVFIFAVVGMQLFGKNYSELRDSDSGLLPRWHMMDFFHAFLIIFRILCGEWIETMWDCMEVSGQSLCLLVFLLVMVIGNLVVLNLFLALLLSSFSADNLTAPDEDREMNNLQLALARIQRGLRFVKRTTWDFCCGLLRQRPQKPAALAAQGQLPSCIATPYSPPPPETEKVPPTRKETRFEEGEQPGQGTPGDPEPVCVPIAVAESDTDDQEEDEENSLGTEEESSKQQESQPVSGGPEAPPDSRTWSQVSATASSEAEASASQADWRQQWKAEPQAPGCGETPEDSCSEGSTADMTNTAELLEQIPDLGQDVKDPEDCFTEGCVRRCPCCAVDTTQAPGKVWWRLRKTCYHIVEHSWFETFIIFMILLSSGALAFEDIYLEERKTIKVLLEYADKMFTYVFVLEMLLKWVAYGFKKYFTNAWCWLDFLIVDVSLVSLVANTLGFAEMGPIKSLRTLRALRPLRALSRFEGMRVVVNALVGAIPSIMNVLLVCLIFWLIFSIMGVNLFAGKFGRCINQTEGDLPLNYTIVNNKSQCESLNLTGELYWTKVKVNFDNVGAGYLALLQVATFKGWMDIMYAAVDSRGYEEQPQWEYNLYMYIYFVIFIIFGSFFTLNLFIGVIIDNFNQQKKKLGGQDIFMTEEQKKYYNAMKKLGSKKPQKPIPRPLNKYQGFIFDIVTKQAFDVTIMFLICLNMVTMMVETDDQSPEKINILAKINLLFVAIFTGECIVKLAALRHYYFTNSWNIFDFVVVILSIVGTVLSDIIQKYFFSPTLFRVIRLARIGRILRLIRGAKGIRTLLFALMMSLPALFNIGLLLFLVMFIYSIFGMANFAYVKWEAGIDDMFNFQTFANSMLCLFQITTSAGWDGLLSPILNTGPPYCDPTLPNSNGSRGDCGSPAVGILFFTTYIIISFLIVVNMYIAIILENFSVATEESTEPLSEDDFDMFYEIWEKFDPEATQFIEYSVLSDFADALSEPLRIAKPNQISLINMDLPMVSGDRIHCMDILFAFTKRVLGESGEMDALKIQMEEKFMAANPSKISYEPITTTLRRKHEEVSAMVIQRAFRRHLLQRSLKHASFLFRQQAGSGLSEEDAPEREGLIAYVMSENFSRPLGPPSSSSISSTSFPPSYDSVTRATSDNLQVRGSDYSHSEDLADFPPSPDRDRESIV
UniProt Q13936, whole entry: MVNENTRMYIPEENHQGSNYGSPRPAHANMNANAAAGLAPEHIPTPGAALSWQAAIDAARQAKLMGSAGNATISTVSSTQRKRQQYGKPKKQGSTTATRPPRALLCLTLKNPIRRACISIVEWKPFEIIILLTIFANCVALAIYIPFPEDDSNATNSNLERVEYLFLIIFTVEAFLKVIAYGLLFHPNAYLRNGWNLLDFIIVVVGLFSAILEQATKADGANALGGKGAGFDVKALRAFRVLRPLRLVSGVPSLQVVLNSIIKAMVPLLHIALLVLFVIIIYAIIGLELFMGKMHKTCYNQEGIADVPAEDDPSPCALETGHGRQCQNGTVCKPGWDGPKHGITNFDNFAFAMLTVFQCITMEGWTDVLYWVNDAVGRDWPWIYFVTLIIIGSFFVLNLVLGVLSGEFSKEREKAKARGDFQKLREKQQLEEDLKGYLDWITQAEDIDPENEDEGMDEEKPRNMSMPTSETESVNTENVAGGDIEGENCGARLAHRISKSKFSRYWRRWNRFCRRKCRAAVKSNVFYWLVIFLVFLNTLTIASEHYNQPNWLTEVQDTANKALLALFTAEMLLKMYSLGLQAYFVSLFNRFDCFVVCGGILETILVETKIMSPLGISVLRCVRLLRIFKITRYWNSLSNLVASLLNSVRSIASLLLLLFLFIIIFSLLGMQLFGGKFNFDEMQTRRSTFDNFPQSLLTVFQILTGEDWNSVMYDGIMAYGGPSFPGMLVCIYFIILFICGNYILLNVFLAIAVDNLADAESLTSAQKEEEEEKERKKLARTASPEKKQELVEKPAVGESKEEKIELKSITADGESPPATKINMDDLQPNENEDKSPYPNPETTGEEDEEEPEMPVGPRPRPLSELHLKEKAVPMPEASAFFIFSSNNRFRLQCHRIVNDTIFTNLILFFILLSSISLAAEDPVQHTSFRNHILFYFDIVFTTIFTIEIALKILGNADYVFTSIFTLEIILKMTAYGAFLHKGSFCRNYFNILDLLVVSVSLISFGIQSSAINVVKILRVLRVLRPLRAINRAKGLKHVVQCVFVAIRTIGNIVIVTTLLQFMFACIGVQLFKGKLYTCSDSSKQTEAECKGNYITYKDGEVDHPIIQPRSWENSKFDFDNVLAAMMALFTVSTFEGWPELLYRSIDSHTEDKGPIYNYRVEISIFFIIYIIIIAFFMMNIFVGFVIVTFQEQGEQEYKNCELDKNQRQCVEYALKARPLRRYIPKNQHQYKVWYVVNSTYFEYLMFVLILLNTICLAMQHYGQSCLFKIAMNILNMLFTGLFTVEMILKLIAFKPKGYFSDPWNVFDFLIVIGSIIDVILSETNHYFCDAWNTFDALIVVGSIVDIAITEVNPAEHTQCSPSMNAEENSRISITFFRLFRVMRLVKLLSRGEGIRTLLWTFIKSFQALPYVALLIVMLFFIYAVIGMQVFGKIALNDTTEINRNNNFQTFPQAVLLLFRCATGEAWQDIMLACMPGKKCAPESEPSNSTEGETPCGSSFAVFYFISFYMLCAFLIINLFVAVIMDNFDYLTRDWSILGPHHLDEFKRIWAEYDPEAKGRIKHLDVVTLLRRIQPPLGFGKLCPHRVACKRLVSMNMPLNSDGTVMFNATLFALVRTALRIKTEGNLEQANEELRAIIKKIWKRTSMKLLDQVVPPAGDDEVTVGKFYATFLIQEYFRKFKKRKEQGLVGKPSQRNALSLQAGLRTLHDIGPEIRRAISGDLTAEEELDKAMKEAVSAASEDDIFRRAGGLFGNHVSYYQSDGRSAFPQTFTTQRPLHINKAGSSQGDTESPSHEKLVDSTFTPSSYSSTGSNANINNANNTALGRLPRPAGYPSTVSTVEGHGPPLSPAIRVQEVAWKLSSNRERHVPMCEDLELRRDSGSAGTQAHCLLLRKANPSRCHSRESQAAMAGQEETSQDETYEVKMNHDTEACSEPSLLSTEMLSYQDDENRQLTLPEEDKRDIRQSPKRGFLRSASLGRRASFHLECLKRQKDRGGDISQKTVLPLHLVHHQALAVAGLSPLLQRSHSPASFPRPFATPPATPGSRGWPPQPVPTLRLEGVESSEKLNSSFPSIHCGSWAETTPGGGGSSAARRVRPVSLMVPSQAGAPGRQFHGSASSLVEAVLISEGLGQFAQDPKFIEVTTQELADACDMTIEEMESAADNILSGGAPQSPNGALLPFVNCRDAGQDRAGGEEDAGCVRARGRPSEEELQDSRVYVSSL

Experiments:
hNav1.5 = hNav1.5 (Homo sapiens, UniProt Q14524); assay: voltage clamp currents in mammalian cells stably transfected with cloned ion channel cDNA, hNav1.5; format: cell-based
Text: (§1) Nonlinear least squares fits of the current ratio data yielded the best fit value for the IC50 concentration. A positive control was included for each channel tested in the study.

hCav1.2 = hCav1.2 (Homo sapiens, UniProt Q13936); assay: voltage clamp currents in mammalian cells stably transfected with cloned ion channel cDNA, hCav1.2; format: cell-based
Text: as §1

[1] = 0.1 Hz, read-out: Estimated IC50 at 0.1 Hz
[2] = 3 Hz, read-out: Estimated IC50 at 3 Hz

## O=c1[nH]c2ccccc2n1CCCN1CCC(n2c(=O)[nH]c3cc(Cl)ccc32)CC1 [domperidone, 1,3-dihydro-5-chloro-1-(1-(3-(2,3-dihydro-2-oxo-1H-benzimidazol-1-yl)propyl)-4-piperidinyl)-2H-benzimidazol-2-one]
hNav1.5; [1]
  IC50: 41.8 µM
hNav1.5; [2]
  IC50: 3.2 µM
hCav1.2; [1]
  IC50: 101 µM
hCav1.2; [2]
  IC50: 1.01 µM
